The record followed here is publication PMC7081254.

Protein sequences, listed by entry. Tags and fused reporters are not part of them. Lines headed by an entry give the natural chain unless they say otherwise; changes in a name come on top.
UniProt P19785: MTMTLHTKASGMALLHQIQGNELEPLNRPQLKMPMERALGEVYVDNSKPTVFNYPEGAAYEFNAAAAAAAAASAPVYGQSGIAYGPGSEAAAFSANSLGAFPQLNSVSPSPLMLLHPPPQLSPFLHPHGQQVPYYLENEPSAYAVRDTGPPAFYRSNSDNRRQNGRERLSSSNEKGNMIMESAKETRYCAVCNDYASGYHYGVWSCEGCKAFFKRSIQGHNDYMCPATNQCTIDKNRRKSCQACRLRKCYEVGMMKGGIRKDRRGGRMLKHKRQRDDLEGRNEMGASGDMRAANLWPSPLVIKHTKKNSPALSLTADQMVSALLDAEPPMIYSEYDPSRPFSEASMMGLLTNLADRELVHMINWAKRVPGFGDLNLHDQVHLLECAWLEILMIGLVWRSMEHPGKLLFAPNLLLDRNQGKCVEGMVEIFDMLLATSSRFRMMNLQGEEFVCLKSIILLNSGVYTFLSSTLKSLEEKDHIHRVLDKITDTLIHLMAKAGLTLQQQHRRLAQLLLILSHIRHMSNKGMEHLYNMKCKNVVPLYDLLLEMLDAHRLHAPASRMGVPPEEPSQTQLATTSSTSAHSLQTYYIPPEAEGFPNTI

The target of test [1] is EYFP-tagged ERα S216D (mouse) (UniProt P19785). In words: co-IP; FLAG-RORα WT or S100D co-expressed with EYFP-ERα WT or S216D and with CAR WT in Huh7 cells; whole cell lysates precipitated with αGFP-resin; blot with αGFP or αFLAG.
For test [2] the target is unchanged. In words: co-IP; Flag-CAR co-expressed with EYFP-ERα forms in Huh7 cells with 10 nM 17β-estradiol for 24 h; whole cell lysates in IP buffer (20 mM Tris-HCl pH 7.5, 250 mM NaCl, 1% Triton-X 100, 10% glycerol); anti-GFP agarose, 4 °C overnight; blot with anti-FLAG.

These are yes or no findings as the source states them, for the method shown. In cells and extracts the contact can be indirect. Some binding calls cover weakened binding; strength is not graded here. Tags and fused reporters may be left off the sequences shown.

B1: FLAG-tagged RORα S100D (protein, UniProt P35398 1-523)
chain: MESAPAAPDPAASEPGSSGADAAAGSRETPLNQESARKSEPPAPVRRQSYSSTSRGISVTKKTHTSQIEIIPCKICGDKSSGIHYGVITCEGCKGFFRRDQQSNATYSCPRQKNCLIDRTSRNRCQHCRLQKCLAVGMSRDAVKFGRMSKKQRDSLYAEVQKHRMQQQQRDHQQQPGEAEPLTPTYNISANGLTELHDDLSNYIDGHTPEGSKADSAVSSFYLDIQPSPDQSGLDINGIKPEPICDYTPASGFFPYCSFTNGETSPTVSMAELEHLAQNISKSHLETCQYLREELQQITWQTFLQEEIENYQNKQREVMWQLCAIKITEAIQYVVEFAKRIDGFMELCQNDQIVLLKAGSLEVVFIRMCRAFDSQNNTVYFDGKYASPDVFKSLGCEDFISFVFEFGKSLCSMHLTEDEIALFSAFVLMSADRSWLQEKVKIEKLQQKIQLALQHVLQKNHREDGILTKLICKVSTLRALCGRHTEKLMAFKAIYPDIVRLHFPPLYKELFTSEFEPAMQIDG
B1: in test [1], the binding result is recorded as “binds”.

B2: Flag-tagged CAR (constitutive active/androstane receptor, NR1I3) (protein, UniProt Q14994 1-352)
chain: MASREDELRNCVVCGDQATGYHFNALTCEGCKGFFRRTVSKSIGPTCPFAGSCEVSKTQRRHCPACRLQKCLDAGMRKDMILSAEALALRRAKQAQRRAQQTPVQLSKEQEELIRTLLGAHTRHMGTMFEQFVQFRPPAHLFIHHQPLPTLAPVLPLVTHFADINTFMVLQVIKFTKDLPVFRSLPIEDQISLLKGAAVEICHIVLNTTFCLQTQNFLCGPLRYTIEDGARVSPTVGFQVEFLELLFHFHGTLRKLQLQEPEYVLLAAMALFSPDRPGVTQRDEIDQLQEEMALTLQSYIKGQQRRPRDRFLYAKLLGLLAELRSINEAYGYQIQHIQGLSAMMPLLQEICS
As for B2, the binding entry in test [2] is “binds”.
